## Library screen at single concentrations

The values are deposited in ChEMBL (CHEMBL3988442, “University of Dundee, Small-Polar-MMV Screening Library” (2021)).

Values are the deposited “Percent Effect”, in %.
How 0% and 100% were set is not recorded. Most values in the screen are low, and negative values occur.
The compounds are a random part of those screened.

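Whole-parasite assay of Trypanosoma brucei over 72 hours; the read-out is not stated. Concentration: 30 µM. The record gives no direction; compounds that gave an IC50 in retests scored well above the rest, so higher reads as stronger inhibition. Values scatter widely below zero; nearly all retest evidence comes from the higher of the two concentrations used. Size under these conditions: about 64,000 compounds, about 940 of them at 50% or above in at least one test.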

CCCC(O)CN1CCC(=O)N(Cc2ccccc2)Cc2ccccc21 (stereo not shown) gave -19.81%. Result for Cc1cccc(C(=O)N2CCc3c(COCC4CC4)cncc3C2)n1 was -8.847%. For CCOc1ccc(N2CCCN=C2NC(=O)c2cccc(OC)c2)cc1 the result was -26.63%. For Cc1cc(C(=O)N2CCc3[nH]nc(-c4ccc5c(c4)OCO5)c3C2)no1 the result was -188.1%. For O=C(Cn1ccc2ccc(Cl)cc21)NCc1ccc(C(=O)O)cc1 the result was -23.76%. O=C(c1ccc(-c2cc[nH]n2)cc1)N1CC[C@H](CO)[C@H](O)C1 read 0.05802%. O=C(Nc1cccnc1)c1noc2c1CN(S(=O)(=O)C1CC1)CC2 gave -12.13%. For COCC(NC(=O)c1ccc(O)nc1)c1ccc(C)o1 (stereo not shown) the result was -11.09%.

Cn1nc(C(=O)NCc2ccc(F)cc2)c2c1CCS(=O)(=O)C2 read -4.219%. Result for O=S(=O)(CCN1CCCC1Cn1cccn1)c1ccccc1 (stereo not shown) was -0.3331%. Result for c1ccc(-c2noc(CCNC3CCOC4(CCOCC4)C3)n2)nc1 (stereo not shown) was 13.84%. Cc1ccc(C(=O)N2CCOc3nc(C)ccc32)c(F)c1 read 2.815%. For CN(C)CCN1CCOC2(CCN(c3nccs3)CC2)c2ccccc21 the result was -6.827%. Result for CCC(C)c1noc(C2CCN(C(=O)c3cccs3)CC2)n1 (stereo not shown) was -51.45%. NCc1ccc(Oc2cccc(Cl)c2Cl)nc1 read -64.41%. With CC(C)CN1CCN(C)C(CCO)C1 (stereo not shown) the screen gave -44.68%.

For [H][C@@]12CS(=O)(=O)C[C@]1([H])N(Cc1ncc[nH]1)CCN2CC=C(C)C the result was -8.248%. For CCc1ccc(C(N)c2cccc(S(C)(=O)=O)c2)cc1 (stereo not shown) the result was -5.437%. Result for O=C(O)C(F)(F)F.O=C(O)C(F)(F)F.[H][C@@]12COC[C@]1(CNC(=O)C1CCC1)CN(Cc1cccnc1)C2 was 7.218%. Result for Cc1nc(C2CCCN(C(=O)c3cc(Cl)c[nH]3)C2)no1 (stereo not shown) was 16.04%. For CC(C)OCCCNC(=O)c1ccc(-c2ccco2)[nH]c1=O the result was -29.19%. Result for O=C(O)[C@H]1OCC(=O)N(Cc2cccc(Cl)c2)[C@@H]1c1ccccc1 was -11.52%. Result for O=C(O)C(F)(F)F.O=C(c1ccco1)N1CCc2ncnc(Oc3cccnc3)c2CC1 was -3.304%. With Cl.NCC1(c2cccc(Br)c2)CCOCC1 the screen gave -7.877%.

CC1CCC2(CC1)NC(=O)c1cc(Br)ccc1-n1nnnc12 (stereo not shown) read -12.1%. Cn1ncc2c(NCC3CCS(=O)(=O)C3)nc(C3CCCC3)nc21 (stereo not shown) read -12.76%. COc1c(C)cnc(CSc2nnc(N3CCCC3)s2)c1C gave -15.31%. With CCC(C(=O)NCCc1coc(-c2ccc(C)cc2)n1)N(C)C (stereo not shown) the screen gave -38.2%. Cc1ccc(S(=O)(=O)Nc2ccc(-n3cccc3C(=O)O)c(C)c2)cc1 read 10.57%. With CC(=O)c1ccc(S(=O)(=O)NCC2CCN(c3cnccn3)CC2)cc1 the screen gave 9.593%. CCN(Cc1ccoc1)C(C(N)=O)c1ccc(Br)cc1 (stereo not shown) read -28.48%. CN(Cc1ccc2c(c1)OCCO2)Cc1nnnn1-c1ccccc1 read -25.62%.

O=C(Nc1ncnc2c1CCC2)c1cccc(F)c1 read 25.14%. Result for CS(=O)(=O)CCNC(=O)N1CC2(CCCC2)c2ccccc21 was 4.57%. For Cc1oncc1C(=O)N1CCC2(CC1)CC(N1CCOCC1)C2.O=C(O)C(F)(F)F the result was -68.85%. O=S(=O)(CCN1CCOC(Cn2cccn2)C1)c1ccccc1 (stereo not shown) read -7.707%.

The first 3 entries again:

SMILES,Percent Effect
CCCC(O)CN1CCC(=O)N(Cc2ccccc2)Cc2ccccc21 (stereo not shown),-19.81%
Cc1cccc(C(=O)N2CCc3c(COCC4CC4)cncc3C2)n1,-8.847%
CCOc1ccc(N2CCCN=C2NC(=O)c2cccc(OC)c2)cc1,-26.63%